Source: PMC8578495
Results are given in words; binding and its absence hold for the method and conditions named. Binding seen in cells or lysates may run through a third protein. Some binding calls cover weakened binding; strength is not graded here. Tags and fused reporters may be left off the sequences shown.

The chains behind the UniProt entries cited, without tags or fusion partners. Where a name states a change or a piece, a line headed by the entry shows the natural chain unless it says otherwise. Residues count along the entry.
VHL19 (P40337, residues 54-213): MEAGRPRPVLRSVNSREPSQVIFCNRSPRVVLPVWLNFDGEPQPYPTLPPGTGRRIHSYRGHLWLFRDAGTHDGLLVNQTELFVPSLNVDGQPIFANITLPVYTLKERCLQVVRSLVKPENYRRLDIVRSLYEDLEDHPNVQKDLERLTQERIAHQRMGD

Target: T1, FLAG human Mps1 (human) (UniProt P33981)
T1 sequence: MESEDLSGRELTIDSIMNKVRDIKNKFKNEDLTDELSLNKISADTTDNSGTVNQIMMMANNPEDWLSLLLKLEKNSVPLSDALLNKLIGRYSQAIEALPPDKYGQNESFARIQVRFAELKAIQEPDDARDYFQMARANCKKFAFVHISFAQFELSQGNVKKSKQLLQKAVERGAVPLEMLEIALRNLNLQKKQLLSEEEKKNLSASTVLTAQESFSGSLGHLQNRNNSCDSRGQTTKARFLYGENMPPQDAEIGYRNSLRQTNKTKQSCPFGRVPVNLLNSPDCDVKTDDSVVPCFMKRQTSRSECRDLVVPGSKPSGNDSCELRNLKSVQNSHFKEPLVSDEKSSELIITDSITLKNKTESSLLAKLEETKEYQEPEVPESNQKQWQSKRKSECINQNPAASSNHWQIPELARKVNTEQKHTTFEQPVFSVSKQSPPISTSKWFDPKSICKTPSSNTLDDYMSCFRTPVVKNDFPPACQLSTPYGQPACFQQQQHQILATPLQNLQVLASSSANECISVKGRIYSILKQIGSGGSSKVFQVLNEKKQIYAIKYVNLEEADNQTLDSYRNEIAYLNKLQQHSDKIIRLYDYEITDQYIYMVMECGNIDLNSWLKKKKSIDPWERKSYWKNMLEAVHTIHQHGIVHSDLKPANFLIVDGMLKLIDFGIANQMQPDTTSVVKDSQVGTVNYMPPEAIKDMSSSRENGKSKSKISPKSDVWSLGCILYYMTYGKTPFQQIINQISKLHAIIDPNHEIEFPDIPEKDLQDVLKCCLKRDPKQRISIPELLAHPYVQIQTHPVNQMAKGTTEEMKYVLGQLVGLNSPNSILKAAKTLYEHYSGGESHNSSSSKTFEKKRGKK
Assay: co-IP; Mps1-FLAG transiently expressed in HEK293; lysate incubated with anti-FLAG antibody conjugated beads 2 h at 4 C; washed 3 times with lysis buffer (20 mM HEPES pH 7.0, 100 mM NaCl, 1 mM MgCl2, 0.1% NP40); endogenous VHL detected by immunoblotting; empty vector as control

Row | binding | Substance
1 | binds | VHL30 (from UniProt P40337-1 1-213)
2 | binds | VHL19 (from UniProt P40337-3 1-160)
